PubChem BioAssay AID1224830 | NIAID – 2016

Aim: 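Host factors that control LPS-induced TNF expression in human macrophages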 (primary screen)
Cell system: human THP-1 monocytic leukaemia cells, TNF dual-luciferase reporter clone, PMA-differentiated to macrophage-like cells
Knock-down reagent: siRNA pool against human genes, 50 nM
Time to read-out: LPS for 4 h, given about 3 days after siRNA transfection
Treatment: bacterial LPS (TLR4 ligand), 10 ng/ml
Measured: 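Ratio of firefly to renilla light, scaled to the plate median and expressed as a robust z-score per replicate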
Reading the numbers: TNF reporter robust z-score: higher = stronger TNF reporter response to LPS
Rule for the call: 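a well is active when its z-score exceeds 2.8 or falls below -1.5; control wells carry no call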
Shown is an unselected part of about 18,000 reagents tested. About 2,900 of all reagents (16%) were called active. 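Calls are made per well; low scores hint the gene aids the LPS response, high scores that it dampens it.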 Entries without a mark were called inactive. Repeated entries: four replicate wells of each siRNA pool.

| gene symbol | TNF reporter robust z-score |
| --- | --- |
| ANKRD42 (ankyrin repeat domain 42) | 0.92 |
| ANKRD42 (ankyrin repeat domain 42) | 0.57 |
| ANKRD42 (ankyrin repeat domain 42) | -0.47 |
| ANKRD42 (ankyrin repeat domain 42) | 0.67 |
| CFAP119 (cilia and flagella associated protein 119) | 0.12 |
| CFAP119 (cilia and flagella associated protein 119) | 0.34 |
| CFAP119 (cilia and flagella associated protein 119) | -0.53 |
| CFAP119 (cilia and flagella associated protein 119) | 0.68 |
| HSD17B6 (hydroxysteroid 17-beta dehydrogenase 6) | 2.09 |
| HSD17B6 (hydroxysteroid 17-beta dehydrogenase 6) | 0.7 |
| HSD17B6 (hydroxysteroid 17-beta dehydrogenase 6) | 22.1 (active) |
| HSD17B6 (hydroxysteroid 17-beta dehydrogenase 6) | 1.89 |
| SDR39U1 (short chain dehydrogenase/reductase family 39U member 1) | -0.61 |
| SDR39U1 (short chain dehydrogenase/reductase family 39U member 1) | 2.4 |
| SDR39U1 (short chain dehydrogenase/reductase family 39U member 1) | -0.58 |
| SDR39U1 (short chain dehydrogenase/reductase family 39U member 1) | 0.03 |
| CCDC125 (coiled-coil domain containing 125) | 2.4 |
| CCDC125 (coiled-coil domain containing 125) | 2.99 (active) |
| CCDC125 (coiled-coil domain containing 125) | 2.91 (active) |
| CCDC125 (coiled-coil domain containing 125) | 3.11 (active) |
| KLHDC10 (kelch domain containing 10) | 4.01 (active) |
| KLHDC10 (kelch domain containing 10) | 0.7 |
| KLHDC10 (kelch domain containing 10) | 0.17 |
| KLHDC10 (kelch domain containing 10) | 1.76 |
| GBP4 (guanylate binding protein 4) | -0.55 |
| GBP4 (guanylate binding protein 4) | -0.15 |
| GBP4 (guanylate binding protein 4) | -0.33 |
| GBP4 (guanylate binding protein 4) | -0.64 |
| PRKCH (protein kinase C eta) | 1.56 |
| PRKCH (protein kinase C eta) | 1.43 |
| PRKCH (protein kinase C eta) | 1.41 |
| PRKCH (protein kinase C eta) | 2.41 |
| CAPN13 (calpain 13) | 0.09 |
| CAPN13 (calpain 13) | 0.71 |
| CAPN13 (calpain 13) | 0.33 |
| CAPN13 (calpain 13) | 0.36 |
| C10orf95 (chromosome 10 open reading frame 95) | -0.53 |
| C10orf95 (chromosome 10 open reading frame 95) | -0.94 |
| C10orf95 (chromosome 10 open reading frame 95) | -0.82 |
| C10orf95 (chromosome 10 open reading frame 95) | 1.02 |
| GYPA (glycophorin A (MNS blood group)) | -0.42 |
| GYPA (glycophorin A (MNS blood group)) | -0.02 |
| GYPA (glycophorin A (MNS blood group)) | -1.24 |
| GYPA (glycophorin A (MNS blood group)) | -0.44 |
| ASTN2 (astrotactin 2) | -0.97 |
| ASTN2 (astrotactin 2) | -0.84 |
| ASTN2 (astrotactin 2) | -1.72 (active) |
| ASTN2 (astrotactin 2) | -0.02 |
| ARPC5 (actin related protein 2/3 complex subunit 5) | 3.04 (active) |
| ARPC5 (actin related protein 2/3 complex subunit 5) | 1.35 |
| ARPC5 (actin related protein 2/3 complex subunit 5) | 0.1 |
| ARPC5 (actin related protein 2/3 complex subunit 5) | 1.89 |
| RUSF1 (RUS family member 1) | 0.23 |
| RUSF1 (RUS family member 1) | 1.72 |
| RUSF1 (RUS family member 1) | -0.05 |
| RUSF1 (RUS family member 1) | 0.29 |
| DAGLA (diacylglycerol lipase alpha) | 1.59 |
| DAGLA (diacylglycerol lipase alpha) | 0.79 |
| DAGLA (diacylglycerol lipase alpha) | -0.46 |
| DAGLA (diacylglycerol lipase alpha) | 0.47 |
| NLE1 (notchless homolog 1) | 0.62 |
| NLE1 (notchless homolog 1) | -0.18 |
| NLE1 (notchless homolog 1) | 0.42 |
| NLE1 (notchless homolog 1) | 0.57 |
| ICAM4 | 0.15 |
| ICAM4 | 2.26 |
| ICAM4 | 1.7 |
| ICAM4 | 2.33 |
| FAM86B1 | -0.08 |
| FAM86B1 | -1.34 |
| FAM86B1 | -0.97 |
| FAM86B1 | -1.33 |
| POFUT2 (protein O-fucosyltransferase 2) | -0.88 |
| POFUT2 (protein O-fucosyltransferase 2) | 0.34 |
| POFUT2 (protein O-fucosyltransferase 2) | 0.35 |
| POFUT2 (protein O-fucosyltransferase 2) | -0.03 |
| NR5A1 (nuclear receptor subfamily 5 group A member 1) | -0.54 |
| NR5A1 (nuclear receptor subfamily 5 group A member 1) | -0.29 |
| NR5A1 (nuclear receptor subfamily 5 group A member 1) | 0.23 |
| NR5A1 (nuclear receptor subfamily 5 group A member 1) | -0.19 |
| CCDC136 (coiled-coil domain containing 136) | 1.23 |
| CCDC136 (coiled-coil domain containing 136) | 3.1 (active) |
| CCDC136 (coiled-coil domain containing 136) | 2.64 |
| CCDC136 (coiled-coil domain containing 136) | 2.68 |
| DGKD (diacylglycerol kinase delta) | 0.45 |
| DGKD (diacylglycerol kinase delta) | 1.61 |
| DGKD (diacylglycerol kinase delta) | 1.38 |
| DGKD (diacylglycerol kinase delta) | 0.63 |
| MED22 (mediator complex subunit 22) | 1.12 |
| MED22 (mediator complex subunit 22) | 0.13 |
| MED22 (mediator complex subunit 22) | 1.37 |
| MED22 (mediator complex subunit 22) | 0.26 |
| FBXO15 (F-box protein 15) | 0.53 |
| FBXO15 (F-box protein 15) | 2.67 |
| FBXO15 (F-box protein 15) | -0.89 |
| FBXO15 (F-box protein 15) | 1.95 |
| DDHD2 (DDHD domain containing 2) | -0.77 |
| DDHD2 (DDHD domain containing 2) | -0.95 |
| DDHD2 (DDHD domain containing 2) | -0.5 |
| DDHD2 (DDHD domain containing 2) | -0.18 |
| ARHGAP36 (Rho GTPase activating protein 36) | -1.52 (active) |
| ARHGAP36 (Rho GTPase activating protein 36) | -0.91 |
| ARHGAP36 (Rho GTPase activating protein 36) | -1.29 |
| ARHGAP36 (Rho GTPase activating protein 36) | -1.24 |
| SYT17 (synaptotagmin 17) | -0.55 |
| SYT17 (synaptotagmin 17) | 0.16 |
| SYT17 (synaptotagmin 17) | 0.14 |
| SYT17 (synaptotagmin 17) | 2.22 |
| MTRES1 (mitochondrial transcription rescue factor 1) | 1.45 |
| MTRES1 (mitochondrial transcription rescue factor 1) | 0.92 |
| MTRES1 (mitochondrial transcription rescue factor 1) | 0.74 |
| FXN (frataxin) | 1.56 |
| FXN (frataxin) | 0.16 |
| FXN (frataxin) | 0.69 |
| FXN (frataxin) | -0.08 |
| TMEM218 (transmembrane protein 218) | -0.58 |
| TMEM218 (transmembrane protein 218) | -1.1 |
| TMEM218 (transmembrane protein 218) | -0.02 |
| TMEM218 (transmembrane protein 218) | -0.92 |
| SERINC5 (serine incorporator 5) | 0.12 |
| SERINC5 (serine incorporator 5) | 0.25 |
| SERINC5 (serine incorporator 5) | 1.46 |
| ARHGAP26 (Rho GTPase activating protein 26) | 2.09 |
| ARHGAP26 (Rho GTPase activating protein 26) | 3.04 (active) |
| ARHGAP26 (Rho GTPase activating protein 26) | 1.7 |
| ARHGAP26 (Rho GTPase activating protein 26) | 3.07 (active) |
| PLXNA2 (plexin A2) | -0.72 |
| PLXNA2 (plexin A2) | 0.32 |
| PLXNA2 (plexin A2) | -1.36 |
| PLXNA2 (plexin A2) | 0.47 |
| LYPD2 (LY6/PLAUR domain containing 2) | -1.44 |
| LYPD2 (LY6/PLAUR domain containing 2) | -1.05 |
| LYPD2 (LY6/PLAUR domain containing 2) | -1.64 (active) |
| LYPD2 (LY6/PLAUR domain containing 2) | -1.31 |
| OR56B4 (olfactory receptor family 56 subfamily B member 4) | -0.17 |
| OR56B4 (olfactory receptor family 56 subfamily B member 4) | -0.31 |
| OR56B4 (olfactory receptor family 56 subfamily B member 4) | -0.55 |
| OR56B4 (olfactory receptor family 56 subfamily B member 4) | -0.21 |
| MGAT2 | -1.41 |
| MGAT2 | -1.88 (active) |
| MGAT2 | -1.6 (active) |
| MGAT2 | -1.29 |

A run of entries from the list above:
| gene symbol | TNF reporter robust z-score |
| --- | --- |
| FAM86B1 | -0.08 |
| FAM86B1 | -1.34 |
| FAM86B1 | -0.97 |
| FAM86B1 | -1.33 |
| POFUT2 (protein O-fucosyltransferase 2) | -0.88 |
| POFUT2 (protein O-fucosyltransferase 2) | 0.34 |
| POFUT2 (protein O-fucosyltransferase 2) | 0.35 |
| POFUT2 (protein O-fucosyltransferase 2) | -0.03 |
| NR5A1 (nuclear receptor subfamily 5 group A member 1) | -0.54 |
